At least one structure is not confirmed: it was looked up by name or label, or the drawing left a doubt.
Test system: human tumor cell lines
Test: Inhibition of human tumor cell growth in culture (XTT-tetrazolium cytotoxicity assay, 72 h)
Assay type: cell-based
Details: five human tumor cell lines, 72 h incubation; for at least one cell line
Experimental: Cytotoxicity Assays. The effects of the compounds on cell growth were determined in all human tumor cells (i.e. colon HT-29, nasopharyngeal carcinoma HONE-1 and BM-1, hepatoma Hepa-G2, breast carcinoma MX-1, gastric carcinoma TSGH, brain tumor DBTRG, oral carcinoma KB, breast carcinoma MCF-7 and MX-1, and T-cell acute lymphocytic leukemia CCRF-CEM), in a 72 h incubation, by XTT-tetrazolium assay, as described by Scudiero et al. (Cancer Res. 1988, 48, 4827-4833). After the addition of phenazine methosulfate-XTT solution at 37° C. for 6 h, absorbance at 450 and 630 nm was detected on a microplate reader (EL 340; Bio-Tek Instruments Inc., Winooski, Vt.). Six to seven concentrations of each compound were used. The IC50 and dose-effect relationships of the compounds for antitumor activity were calculated by a median-effect plot (Chou et al. Adv. Enzyme Regul. 1984, 22, 27-55) using a computer program on an IBM-PC workstation (Chou et al. Dose-Effect Analysis with Microcomputers: Quantitation of ED50, LD50, Synergism, Antagonism, Low-Dose Risk, Receptor-Ligands Binding and Enzyme Kinetics; Biosoft: Cambridge, U.K., 1987).

## CCOC(=O)Nc1cc(C)cc(Nc2c3cccc(C)c3nc3c(C(=O)NCCN(C)C)cccc23)c1 [Compound 4, {3-[4-(2-dimethylaminoethylcarbamoyl)-5-methylacridin-9-ylamino]-5-methylphenyl}-carbamic acid ethyl ester]
  IC50 values compared with tested known 9-anilinoacridine antitumor compounds: lower than those of tested known 9-anilinoacridine antitumor compounds

Reference: US6821983B2, “5-(9-acridinylamino)-toluidine compounds” (Academia Sinica, priority 2003, dated 2004)
